# Experimental data as given in the supplement of paper PMC12819154, “High-throughput peptide-centric local stability assay extends protein–ligand identification to membrane proteins, tissues and bacteria” (Nature Structural & Molecular Biology, 2025).
# Chains of the proteins cited; added tags and fusions are not shown. Lines headed by an entry give the natural chain unless they say otherwise; changes in a name come on top.
# UniProt Q9CQ73: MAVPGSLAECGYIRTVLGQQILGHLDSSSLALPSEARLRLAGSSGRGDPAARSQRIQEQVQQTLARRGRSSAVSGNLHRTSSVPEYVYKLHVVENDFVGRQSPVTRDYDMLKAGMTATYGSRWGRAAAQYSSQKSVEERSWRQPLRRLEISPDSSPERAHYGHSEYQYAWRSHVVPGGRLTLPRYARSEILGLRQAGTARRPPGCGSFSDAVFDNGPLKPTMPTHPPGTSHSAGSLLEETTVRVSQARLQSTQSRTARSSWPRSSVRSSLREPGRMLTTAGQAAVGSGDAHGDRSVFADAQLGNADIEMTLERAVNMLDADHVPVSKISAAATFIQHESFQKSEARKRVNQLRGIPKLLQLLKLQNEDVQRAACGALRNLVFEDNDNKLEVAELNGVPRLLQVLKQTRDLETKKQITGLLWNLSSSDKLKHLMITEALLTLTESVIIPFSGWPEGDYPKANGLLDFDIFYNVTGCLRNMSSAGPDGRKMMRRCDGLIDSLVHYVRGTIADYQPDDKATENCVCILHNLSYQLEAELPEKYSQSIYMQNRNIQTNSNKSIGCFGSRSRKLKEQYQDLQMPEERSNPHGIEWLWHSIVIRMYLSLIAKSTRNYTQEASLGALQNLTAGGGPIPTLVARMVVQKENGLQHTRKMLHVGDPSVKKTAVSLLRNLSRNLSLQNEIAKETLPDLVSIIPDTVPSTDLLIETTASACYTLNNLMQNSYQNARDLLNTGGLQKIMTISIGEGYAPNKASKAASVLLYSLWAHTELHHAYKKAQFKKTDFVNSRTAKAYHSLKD
# UniProt Q9CQQ8: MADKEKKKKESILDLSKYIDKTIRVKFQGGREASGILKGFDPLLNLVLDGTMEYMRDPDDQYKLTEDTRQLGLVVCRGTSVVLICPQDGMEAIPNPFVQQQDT
# UniProt Q9CQW1: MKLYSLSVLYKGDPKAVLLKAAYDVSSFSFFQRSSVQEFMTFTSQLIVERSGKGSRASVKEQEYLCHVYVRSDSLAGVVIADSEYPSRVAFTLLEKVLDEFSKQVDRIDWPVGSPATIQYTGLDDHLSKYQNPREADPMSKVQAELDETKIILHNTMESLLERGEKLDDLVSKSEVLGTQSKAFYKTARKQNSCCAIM
# UniProt Q9CQY2: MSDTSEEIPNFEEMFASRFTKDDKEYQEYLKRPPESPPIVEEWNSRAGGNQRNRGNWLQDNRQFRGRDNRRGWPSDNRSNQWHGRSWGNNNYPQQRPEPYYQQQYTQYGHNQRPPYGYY
# UniProt Q99NH2, whole entry: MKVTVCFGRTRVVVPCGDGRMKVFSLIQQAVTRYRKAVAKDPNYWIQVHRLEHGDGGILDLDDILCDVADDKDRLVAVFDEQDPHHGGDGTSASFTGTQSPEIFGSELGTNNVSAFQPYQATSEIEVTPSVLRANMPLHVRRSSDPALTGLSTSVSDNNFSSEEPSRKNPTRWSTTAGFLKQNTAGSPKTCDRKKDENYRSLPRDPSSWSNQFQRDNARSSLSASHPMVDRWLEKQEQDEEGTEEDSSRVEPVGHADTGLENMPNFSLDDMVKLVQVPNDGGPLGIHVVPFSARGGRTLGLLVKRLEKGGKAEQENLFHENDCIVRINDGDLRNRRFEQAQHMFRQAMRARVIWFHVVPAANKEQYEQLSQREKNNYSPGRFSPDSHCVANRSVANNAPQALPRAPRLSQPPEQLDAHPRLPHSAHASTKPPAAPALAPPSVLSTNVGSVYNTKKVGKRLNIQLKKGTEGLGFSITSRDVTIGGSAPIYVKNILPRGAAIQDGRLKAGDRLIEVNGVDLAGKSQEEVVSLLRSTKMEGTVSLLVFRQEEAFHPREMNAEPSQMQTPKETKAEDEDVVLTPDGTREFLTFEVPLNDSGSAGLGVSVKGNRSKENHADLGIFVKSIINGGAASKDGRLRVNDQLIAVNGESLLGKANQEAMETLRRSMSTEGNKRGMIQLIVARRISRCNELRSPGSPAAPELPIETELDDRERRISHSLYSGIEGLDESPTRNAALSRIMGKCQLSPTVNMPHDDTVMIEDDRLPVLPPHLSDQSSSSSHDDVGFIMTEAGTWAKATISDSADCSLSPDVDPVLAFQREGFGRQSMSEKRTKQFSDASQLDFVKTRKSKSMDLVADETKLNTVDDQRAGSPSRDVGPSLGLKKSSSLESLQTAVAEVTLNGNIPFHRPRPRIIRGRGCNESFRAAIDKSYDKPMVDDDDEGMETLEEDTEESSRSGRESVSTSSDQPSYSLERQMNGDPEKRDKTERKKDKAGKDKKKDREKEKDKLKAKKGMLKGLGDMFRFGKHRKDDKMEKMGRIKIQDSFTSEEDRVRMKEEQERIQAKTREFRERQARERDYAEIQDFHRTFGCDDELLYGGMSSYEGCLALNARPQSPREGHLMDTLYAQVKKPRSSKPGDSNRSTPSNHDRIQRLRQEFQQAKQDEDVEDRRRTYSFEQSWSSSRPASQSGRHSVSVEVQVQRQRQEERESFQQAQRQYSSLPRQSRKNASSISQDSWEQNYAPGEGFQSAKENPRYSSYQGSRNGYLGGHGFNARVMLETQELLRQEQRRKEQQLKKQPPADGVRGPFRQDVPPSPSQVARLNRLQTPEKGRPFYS
# UniProt Q99PG2: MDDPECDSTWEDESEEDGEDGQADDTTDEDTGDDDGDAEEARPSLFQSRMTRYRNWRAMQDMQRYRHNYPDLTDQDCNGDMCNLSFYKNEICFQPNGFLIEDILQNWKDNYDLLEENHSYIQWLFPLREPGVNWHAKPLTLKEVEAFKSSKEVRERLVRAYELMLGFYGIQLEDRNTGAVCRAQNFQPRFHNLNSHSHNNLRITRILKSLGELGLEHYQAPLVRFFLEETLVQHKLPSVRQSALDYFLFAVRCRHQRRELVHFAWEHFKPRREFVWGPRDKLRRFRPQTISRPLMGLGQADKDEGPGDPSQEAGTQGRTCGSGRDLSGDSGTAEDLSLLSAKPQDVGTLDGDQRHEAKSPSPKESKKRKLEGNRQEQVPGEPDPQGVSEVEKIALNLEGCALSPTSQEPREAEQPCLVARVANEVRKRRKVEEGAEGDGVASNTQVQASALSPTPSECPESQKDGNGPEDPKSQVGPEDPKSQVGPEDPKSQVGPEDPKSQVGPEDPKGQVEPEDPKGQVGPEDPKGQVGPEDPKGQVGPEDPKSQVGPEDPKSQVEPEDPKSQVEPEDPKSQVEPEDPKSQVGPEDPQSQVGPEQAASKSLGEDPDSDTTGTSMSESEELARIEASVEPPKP
# UniProt Q99M07: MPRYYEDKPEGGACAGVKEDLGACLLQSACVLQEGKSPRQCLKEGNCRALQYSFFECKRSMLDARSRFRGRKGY
# UniProt Q9CPQ1: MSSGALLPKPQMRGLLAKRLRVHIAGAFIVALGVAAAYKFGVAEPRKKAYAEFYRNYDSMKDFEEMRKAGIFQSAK
# UniProt Q9CQA9: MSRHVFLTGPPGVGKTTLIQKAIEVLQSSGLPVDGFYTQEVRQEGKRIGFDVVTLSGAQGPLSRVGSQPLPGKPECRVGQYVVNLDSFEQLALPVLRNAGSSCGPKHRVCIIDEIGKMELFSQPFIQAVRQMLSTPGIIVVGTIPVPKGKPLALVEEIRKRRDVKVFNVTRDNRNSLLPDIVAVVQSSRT
# UniProt Q9CPS6: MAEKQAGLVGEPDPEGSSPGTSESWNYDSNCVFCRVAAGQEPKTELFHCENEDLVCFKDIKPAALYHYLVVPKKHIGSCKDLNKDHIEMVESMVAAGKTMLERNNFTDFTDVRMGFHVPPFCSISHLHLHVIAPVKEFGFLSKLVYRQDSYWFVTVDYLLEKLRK
# UniProt Q9CQ88: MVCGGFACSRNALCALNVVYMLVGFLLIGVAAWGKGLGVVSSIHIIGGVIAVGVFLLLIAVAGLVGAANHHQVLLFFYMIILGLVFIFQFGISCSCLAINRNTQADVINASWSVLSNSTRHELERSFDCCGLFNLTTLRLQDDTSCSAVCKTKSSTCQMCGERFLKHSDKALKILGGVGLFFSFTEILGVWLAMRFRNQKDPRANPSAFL
# UniProt Q9CQG1: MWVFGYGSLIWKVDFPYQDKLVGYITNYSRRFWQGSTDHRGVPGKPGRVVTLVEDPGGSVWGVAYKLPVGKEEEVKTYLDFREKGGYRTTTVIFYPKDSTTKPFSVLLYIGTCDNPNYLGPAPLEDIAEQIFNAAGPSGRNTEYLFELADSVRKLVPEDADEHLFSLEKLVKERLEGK
# UniProt Q99MP8: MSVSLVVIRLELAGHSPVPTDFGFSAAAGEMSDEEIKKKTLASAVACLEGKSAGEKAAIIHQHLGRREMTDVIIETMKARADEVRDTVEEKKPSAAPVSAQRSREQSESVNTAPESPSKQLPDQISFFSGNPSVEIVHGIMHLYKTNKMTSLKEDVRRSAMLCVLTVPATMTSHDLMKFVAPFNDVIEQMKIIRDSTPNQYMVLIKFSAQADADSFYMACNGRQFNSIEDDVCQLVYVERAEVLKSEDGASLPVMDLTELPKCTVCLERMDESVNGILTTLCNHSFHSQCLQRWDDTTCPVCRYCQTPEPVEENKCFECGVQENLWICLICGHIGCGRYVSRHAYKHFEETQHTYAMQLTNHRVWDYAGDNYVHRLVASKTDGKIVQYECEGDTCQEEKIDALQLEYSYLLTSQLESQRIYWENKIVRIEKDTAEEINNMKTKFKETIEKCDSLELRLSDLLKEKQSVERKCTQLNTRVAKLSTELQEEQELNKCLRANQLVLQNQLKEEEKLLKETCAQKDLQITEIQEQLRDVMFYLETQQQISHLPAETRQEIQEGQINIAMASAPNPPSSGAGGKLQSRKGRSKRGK
# UniProt Q99LN9: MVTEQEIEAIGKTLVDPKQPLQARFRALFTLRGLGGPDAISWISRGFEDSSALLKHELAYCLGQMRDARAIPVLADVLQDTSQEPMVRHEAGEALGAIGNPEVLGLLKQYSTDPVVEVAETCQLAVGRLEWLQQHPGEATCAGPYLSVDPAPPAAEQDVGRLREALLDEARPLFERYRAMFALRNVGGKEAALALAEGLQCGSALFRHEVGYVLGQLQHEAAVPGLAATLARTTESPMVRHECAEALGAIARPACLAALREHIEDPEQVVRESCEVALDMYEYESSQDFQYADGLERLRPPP
# UniProt Q9CQ54: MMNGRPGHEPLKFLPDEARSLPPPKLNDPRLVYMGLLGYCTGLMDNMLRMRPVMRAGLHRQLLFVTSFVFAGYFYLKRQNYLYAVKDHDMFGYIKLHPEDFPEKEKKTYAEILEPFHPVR
# UniProt Q9CR39: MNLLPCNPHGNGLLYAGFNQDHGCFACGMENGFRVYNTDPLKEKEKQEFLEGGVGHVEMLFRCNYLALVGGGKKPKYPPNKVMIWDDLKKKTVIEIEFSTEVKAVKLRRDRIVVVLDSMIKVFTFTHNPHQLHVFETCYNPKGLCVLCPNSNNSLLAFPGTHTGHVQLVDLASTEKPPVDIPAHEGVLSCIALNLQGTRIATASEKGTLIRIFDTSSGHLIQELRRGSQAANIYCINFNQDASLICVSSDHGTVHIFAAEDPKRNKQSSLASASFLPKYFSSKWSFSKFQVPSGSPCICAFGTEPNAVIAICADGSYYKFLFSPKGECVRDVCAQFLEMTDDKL
# UniProt Q9CQF3, whole entry: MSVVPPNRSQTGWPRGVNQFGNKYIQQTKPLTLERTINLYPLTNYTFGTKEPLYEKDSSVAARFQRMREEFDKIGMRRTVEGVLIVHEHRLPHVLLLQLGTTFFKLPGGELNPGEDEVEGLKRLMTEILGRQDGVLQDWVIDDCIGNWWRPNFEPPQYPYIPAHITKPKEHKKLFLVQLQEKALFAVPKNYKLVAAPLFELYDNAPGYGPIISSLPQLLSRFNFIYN
# UniProt Q99N13: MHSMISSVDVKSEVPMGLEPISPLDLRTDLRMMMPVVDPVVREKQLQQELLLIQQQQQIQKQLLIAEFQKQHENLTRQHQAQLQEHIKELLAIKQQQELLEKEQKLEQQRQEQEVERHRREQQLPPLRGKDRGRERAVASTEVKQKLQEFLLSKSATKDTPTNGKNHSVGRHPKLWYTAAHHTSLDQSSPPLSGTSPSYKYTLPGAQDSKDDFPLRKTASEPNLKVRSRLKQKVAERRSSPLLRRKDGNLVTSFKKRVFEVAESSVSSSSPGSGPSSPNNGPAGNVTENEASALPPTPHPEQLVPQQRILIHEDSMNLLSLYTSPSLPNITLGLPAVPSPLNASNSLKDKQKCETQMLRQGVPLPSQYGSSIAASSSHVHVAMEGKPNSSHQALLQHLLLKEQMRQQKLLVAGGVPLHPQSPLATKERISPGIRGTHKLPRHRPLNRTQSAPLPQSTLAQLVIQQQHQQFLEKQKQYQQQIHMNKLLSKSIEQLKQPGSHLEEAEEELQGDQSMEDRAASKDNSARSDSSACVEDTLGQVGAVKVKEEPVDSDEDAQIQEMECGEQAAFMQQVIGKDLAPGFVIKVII
# UniProt Q9CPV4: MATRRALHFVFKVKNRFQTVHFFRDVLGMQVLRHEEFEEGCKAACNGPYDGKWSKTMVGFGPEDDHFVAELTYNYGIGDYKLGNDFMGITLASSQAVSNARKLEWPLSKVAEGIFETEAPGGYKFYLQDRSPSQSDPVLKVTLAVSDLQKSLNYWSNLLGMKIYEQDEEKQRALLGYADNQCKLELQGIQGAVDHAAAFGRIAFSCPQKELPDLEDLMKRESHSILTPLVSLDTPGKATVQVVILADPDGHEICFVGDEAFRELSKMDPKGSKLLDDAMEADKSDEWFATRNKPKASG
# This is one part of the list. Most entries show no effect beyond the scatter of the controls.
# Compound: CN[C@@H]1C[C@H]2O[C@@](C)([C@@H]1OC)n1c3ccccc3c3c4c(c5c6ccccc6n2c5c31)C(=O)NC4 [staurosporine]
# Assay: log2 fold change of tryptic peptide abundance, ligand vs vehicle (limited proteolysis) (log2 ratio); higher = more trypsin-susceptible (destabilized)
# Conditions: ligand concentration: 20 uM; sample: mouse liver crude lysate; replicate design: treated separately
row,Target,log2 fold change
1,"UniProt Q9CQ73 (peptide sequence: SSAVSGNLHR, peptide start residue: 70)",-0.247
2,"UniProt Q9CQQ8 (peptide sequence: ESILDLSK, peptide start residue: 10)",-0.0469
3,"UniProt Q9CQW1 (peptide sequence: VAFTLLEK, peptide start residue: 89)",-0.276
4,"UniProt Q99LW6 (peptide sequence: KPRPVSQLVAQQVTQQFVPPTQSK, peptide start residue: 52)",-0.281
5,"UniProt Q9CQY2 (peptide sequence: RGWPSDNR, peptide start residue: 71)",0.475
6,"UniProt Q99NH2 (peptide sequence: SLPRDPSSWSNQFQR, peptide start residue: 201)",-0.468
7,"UniProt Q9CR47 (peptide sequence: WEVPLPK, peptide start residue: 117)",-0.447
8,"UniProt Q99PG2 (peptide sequence: ELVHFAWEHFKPR, peptide start residue: 259)",0.227
9,"UniProt Q99ME9 (peptide sequence: LPTIDPNTR, peptide start residue: 161)",0.446
10,"UniProt Q9CQZ6 (peptide sequence: IEGTPLETVQKK, peptide start residue: 30)",0.0777
11,"UniProt Q99M07 (peptide sequence: YYEDKPEGGACAGVK, peptide start residue: 4)",0.12
12,"UniProt Q99PI5 (peptide sequence: SQHQGPDDIYLDDLK, peptide start residue: 392)",-0.117
13,"UniProt Q99N20 (peptide sequence: NKYECELQGAK, peptide start residue: 132)",0.275
14,"UniProt Q9CQF8 (peptide sequence: AAATSKFPK, peptide start residue: 76)",-0.295
15,"UniProt Q99PT3 (peptide sequence: WLDALEKGELDDNGDLKK, peptide start residue: 169)",-0.521
16,"UniProt Q9CPQ1 (peptide sequence: NYDSMKDFEEMR, peptide start residue: 56)",-0.179
17,"UniProt Q9CQA9 (peptide sequence: VGSQPLPGKPECR, peptide start residue: 65)",-0.0938
18,"UniProt Q9CPS6 (peptide sequence: MGFHVPPFCSISHLHLHVIAPVK, peptide start residue: 114)",-0.507

row,Target,log2 fold change
1,"UniProt Q99PQ1 (peptide sequence: TYWENQIQK, peptide start residue: 169)",-0.359
2,"UniProt Q9CQR6 (peptide sequence: GAGWLFGAK, peptide start residue: 211)",0.0802
3,"UniProt Q9CQ88 (peptide sequence: LQDDTSCSAVCKTK, peptide start residue: 140)",0.127
4,"UniProt Q99MI1 (peptide sequence: REDSLSDSSQQLQDSLR, peptide start residue: 821)",-0.407
5,"UniProt Q9CR23 (peptide sequence: WKLQVQEQR, peptide start residue: 180)",-0.128
6,"UniProt Q9CQG1 (peptide sequence: RFWQGSTDHR, peptide start residue: 31)",0.219
7,"UniProt Q99LM2 (peptide sequence: WQSLVLTIR, peptide start residue: 30)",0.487
8,"UniProt Q99MP8 (peptide sequence: IVRIEKDTAEEINNMK, peptide start residue: 426)",0.648
9,"UniProt Q99LN9 (peptide sequence: TTESPMVR, peptide start residue: 233)",-0.194
10,"UniProt Q9CQ54 (peptide sequence: TYAEILEPFHPVR, peptide start residue: 108)",-0.199
11,"UniProt Q9CR39 (peptide sequence: QSSLASASFLPK, peptide start residue: 267)",-0.0457
12,"UniProt Q9CQF3 (peptide sequence: GVNQFGNK, peptide start residue: 16)",-0.113
13,"UniProt Q9CR55 (peptide sequence: EKINSTVNKDLENR, peptide start residue: 71)",-0.794
14,"UniProt Q99N85 (peptide sequence: AGLLPNHRPQLPEGCLPK, peptide start residue: 125)",0.268
15,"UniProt Q9CQA6 (peptide sequence: PILKPNKPLILANR, peptide start residue: 19)",-0.197
16,"UniProt Q99N13 (peptide sequence: LQEFLLSK, peptide start residue: 178)",-0.0551
17,"UniProt Q9CPV4 (peptide sequence: KLEWPLSK, peptide start residue: 102)",-0.527

# Exported as tab-separated lines: part of the list above
row	Target	log2 fold change
15	UniProt Q9CQA6 (peptide sequence: PILKPNKPLILANR, peptide start residue: 19)	-0.197
16	UniProt Q99N13 (peptide sequence: LQEFLLSK, peptide start residue: 178)	-0.0551
